Laboratory results reported in patent US7928090B2, “External preparation composition” (Lion Corporation, priority 2002, dated 2011).
For at least one compound, name, drawing or mass did not settle the structure.

Assay: Solubility in ethanol/propylene glycol (7:3) solvent (Japanese Pharmacopoeia criteria)
Assay type: physicochemical
Settings: 20° C., within 30 minutes, amount of solvent to dissolve 1 g or 1 ml of solute

Row | Compound | Solubility
1 | CC(=O)OC[C@H]1OC(OC(C)=O)[C@H](NC(=O)/C=C(C)/C=C/C=C(C)/C=C/C2=C(C)CCCC2(C)C)[C@@H](OC(C)=O)[C@@H]1OC(C)=O (single isomer, unassigned) [1,3,4,6-tetra-O-acetyl-N-retinoyl-D-glucosamine (9-cis isome] | ◯ (soluble: 10 ml or more and less than 100 ml)
2 | CC(=O)OC[C@H]1OC(OC(C)=O)[C@H](NC(=O)/C=C(C)/C=C/C=C(C)/C=C/C2=C(C)CCCC2(C)C)[C@@H](OC(C)=O)[C@@H]1OC(C)=O (single isomer, unassigned) [1,3,4,6-tetra-O-acetyl-N-retinoyl-D-glucosamine (13-cis isom] | ◯ (soluble: 10 ml or more and less than 100 ml)
3 | CC(=O)OC[C@H]1OC(OC(C)=O)[C@H](NC(=O)/C=C(C)/C=C/C=C(C)/C=C/C2=C(C)CCCC2(C)C)[C@@H](OC(C)=O)[C@@H]1OC(C)=O (single isomer, unassigned) [1,3,4,6-tetra-O-acetyl-N-retinoyl-D-glucosamine (cis isomer/] | Δ (slightly soluble: 100 ml or more and less than 1000 ml)
